Test results taken from PMC11573613.
Results are given in words; binding and its absence hold for the method and conditions named. In cells and extracts the contact can be indirect. Some binding calls cover weakened binding; strength is not graded here.

The chains behind the UniProt entries cited, without tags or fusion partners. Residues count along the entry.
UniProt Q49AH0, residues 25-187: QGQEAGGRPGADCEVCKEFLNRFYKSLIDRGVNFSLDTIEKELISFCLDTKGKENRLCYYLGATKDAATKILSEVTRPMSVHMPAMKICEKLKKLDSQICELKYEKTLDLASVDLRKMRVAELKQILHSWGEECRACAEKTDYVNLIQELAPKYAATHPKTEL
UniProt P11021, residues 19-654: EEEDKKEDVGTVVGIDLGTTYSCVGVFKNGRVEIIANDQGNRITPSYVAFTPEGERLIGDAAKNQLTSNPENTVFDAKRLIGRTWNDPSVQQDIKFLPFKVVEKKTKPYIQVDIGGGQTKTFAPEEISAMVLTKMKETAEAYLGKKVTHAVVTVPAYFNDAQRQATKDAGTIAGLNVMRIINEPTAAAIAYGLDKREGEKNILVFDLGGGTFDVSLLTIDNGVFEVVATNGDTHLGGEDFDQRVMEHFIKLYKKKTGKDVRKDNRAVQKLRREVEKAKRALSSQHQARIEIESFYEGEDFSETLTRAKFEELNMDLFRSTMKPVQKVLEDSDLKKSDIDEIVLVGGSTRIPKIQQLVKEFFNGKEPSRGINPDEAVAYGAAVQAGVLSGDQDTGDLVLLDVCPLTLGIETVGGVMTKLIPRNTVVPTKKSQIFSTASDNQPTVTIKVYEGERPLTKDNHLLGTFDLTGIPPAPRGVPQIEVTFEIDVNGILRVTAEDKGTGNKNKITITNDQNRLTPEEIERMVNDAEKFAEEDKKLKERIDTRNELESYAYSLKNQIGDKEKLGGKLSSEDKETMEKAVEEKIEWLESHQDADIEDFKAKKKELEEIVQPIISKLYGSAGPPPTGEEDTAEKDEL
UniProt P61224: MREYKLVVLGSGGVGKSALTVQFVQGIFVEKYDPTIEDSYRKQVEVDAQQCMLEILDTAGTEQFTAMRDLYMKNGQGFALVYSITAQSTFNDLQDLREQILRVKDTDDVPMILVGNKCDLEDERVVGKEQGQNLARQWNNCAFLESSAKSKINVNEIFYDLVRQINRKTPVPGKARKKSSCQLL

Molecular target: Recombinant human cerebral dopamine neurotrophic factor (CDNF) (human) (UniProt Q49AH0)
Assay: co-IP; lysates (2.4 mg) of human washed platelets treated with AA and CDNF; rabbit monoclonal anti-human CDNF antibody (4.8 μg) or IgG at 4°C overnight, protein A/G beads; western blot

| Substance | binding |
| --- | --- |
| GRP78 (Bip) (from UniProt P11021 19-654) | binds |
| Ras-related protein 1b (Rap1b) (from UniProt P61224 1-184) | binds |
